{"source": "PubChem BioAssay AID1259327 (Drosophila RNAi Screening Center, 2017)", "aim": "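Knock-downs altering cellular ATP with no metal added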", "cells": "Drosophila S2R+ cells", "reagent": "long dsRNA against Drosophila genes", "time to read-out": "5 days (water added on day 4, read one day later)", "conditions": "water added as vehicle, no metal, one day before read-out", "read-out": "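Luciferase ATP signal per well, normalised to plate mean, duplicate average converted to z-score across plates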", "direction": "ATP z-score: higher = more total ATP than typical wells; ATP luminescence: higher = more total ATP", "rule for the call": "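Called active when the ATP z-score exceeds 1.5 or falls below -1.5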", "calls": "active = hit: ATP up or down; inactive = no clear ATP change", "note": "Shown is an unselected part of about 3,100 reagents. 378 of them (12%) were called active. 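Hits include both directions; z-score sign shows ATP rise or fall; raw luminescence values are not plate-normalised.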 A number with no mark means an inactive call. Reagents against one gene are numbered here. A plus sign joins genes that one reagent is predicted to hit. Not given: the amount of reagent."}
{"predicted target":"Npc1a","reagent":1,"ATP z-score, duplicate mean":0.328,"ATP luminescence, replicate 1 (RLU)":7.95e5,"ATP luminescence, replicate 2 (RLU)":7.28e5}
{"predicted target":"Npc1a","reagent":2,"ATP z-score, duplicate mean":0.4,"ATP luminescence, replicate 1 (RLU)":4.42e5,"ATP luminescence, replicate 2 (RLU)":5.15e5}
{"predicted target":"CG11703","reagent":1,"ATP z-score, duplicate mean":-0.0891,"ATP luminescence, replicate 1 (RLU)":7.23e5,"ATP luminescence, replicate 2 (RLU)":6.70e5}
{"predicted target":"CG11703","reagent":2,"ATP z-score, duplicate mean":-0.204,"ATP luminescence, replicate 1 (RLU)":9.22e5,"ATP luminescence, replicate 2 (RLU)":1.11e6}
{"predicted target":"mthl12","reagent":1,"ATP z-score, duplicate mean":-0.0202,"ATP luminescence, replicate 1 (RLU)":7.01e5,"ATP luminescence, replicate 2 (RLU)":7.82e5}
{"predicted target":"Or67d","reagent":1,"ATP z-score, duplicate mean":-0.799,"ATP luminescence, replicate 1 (RLU)":7.79e5,"ATP luminescence, replicate 2 (RLU)":8.02e5}
{"predicted target":"Or67d","reagent":2,"ATP z-score, duplicate mean":-1.02,"ATP luminescence, replicate 1 (RLU)":4.45e5,"ATP luminescence, replicate 2 (RLU)":3.30e5}
{"predicted target":"CG12990","reagent":1,"ATP z-score, duplicate mean":-0.114,"ATP luminescence, replicate 1 (RLU)":7.02e5,"ATP luminescence, replicate 2 (RLU)":7.60e5}
{"predicted target":"rpk","reagent":1,"ATP z-score, duplicate mean":"-2.05 (active)","ATP luminescence, replicate 1 (RLU)":3.85e5,"ATP luminescence, replicate 2 (RLU)":4.27e5}
{"predicted target":"Coq4 + frc","reagent":1,"ATP z-score, duplicate mean":-0.552,"ATP luminescence, replicate 1 (RLU)":8.11e5,"ATP luminescence, replicate 2 (RLU)":8.35e5}

Entries above with an active call (1):
{"predicted target":"rpk","reagent":1,"ATP z-score, duplicate mean":"-2.05 (active)","ATP luminescence, replicate 1 (RLU)":3.85e5,"ATP luminescence, replicate 2 (RLU)":4.27e5}

Next results follow.
{"predicted target":"CG3652","reagent":1,"ATP z-score, duplicate mean":-0.198,"ATP luminescence, replicate 1 (RLU)":7.16e5,"ATP luminescence, replicate 2 (RLU)":6.94e5}
{"predicted target":"CG42826","reagent":1,"ATP z-score, duplicate mean":-0.112,"ATP luminescence, replicate 1 (RLU)":9.14e5,"ATP luminescence, replicate 2 (RLU)":8.50e5}
{"predicted target":"Osi10b","reagent":1,"ATP z-score, duplicate mean":-0.82,"ATP luminescence, replicate 1 (RLU)":8.30e5,"ATP luminescence, replicate 2 (RLU)":7.49e5}
{"predicted target":"Osi10b","reagent":2,"ATP z-score, duplicate mean":0.0333,"ATP luminescence, replicate 1 (RLU)":4.26e5,"ATP luminescence, replicate 2 (RLU)":5.10e5}
{"predicted target":"GluRIID","reagent":1,"ATP z-score, duplicate mean":-1.1,"ATP luminescence, replicate 1 (RLU)":2.65e5,"ATP luminescence, replicate 2 (RLU)":6.04e5}
{"predicted target":"GluRIID","reagent":2,"ATP z-score, duplicate mean":-0.41,"ATP luminescence, replicate 1 (RLU)":7.94e5,"ATP luminescence, replicate 2 (RLU)":8.04e5}
